Reference: patent publication US6077680A (The University of Florida, dated 2000)

Test: general procedure: Fmoc solid-phase peptide synthesis; Fmoc-Cys(Trt)-Wang resin; 2-chlorotrityl resin for truncated analogs; dicyclohexylcarbodiimide with 2 equiv. 1-hydroxybenzotriazole
Details: oxidative folding step, several disulfide bridges, sequence written open

Sequence | outcome | difficulty met
RSCIDTIPKSRCTAFQCKASMKYRLSFCRKTCGTC | Repeated folding attempts with H19A, including addition of glutathione, failed to yield a major product | –
RSCIDTIPKSRCTAPQCKHSMKYRLSFCRATCGTC | – | Lys30 to Ala (K30A) failed to yield a major product after 36 to 72 h

Plain letter strings leave the end groups untold.
